{"source": "the supplement of paper PMC8728848", "test_in_all_cases": "glycan array binding signal (z-score within array); higher = stronger binding", "conditions_in_all_cases": "glycan notation: IUPAC condensed, linker removed", "key": {"[1]": {"molecular_target": "Fuc(b1-3)GlcNAc", "summary_of_the_method": "(§1)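 Glycan array data were curated from 3228 arrays in the Consortium for Functional Glycomics database and kept only where the protein sequence was available. Glycan names were converted to IUPAC-condensed notation, and columns mapping to the same glycan were averaged. The binding signal is a within-array Z-score, averaged across arrays of the same protein sequence at different concentrations or buffers and across linkers. Negative Z-scores can be read as non-binding.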"}, "[2]": {"molecular_target": "Gal(a1-2)Gal", "summary_of_the_method": "as §1"}, "[3]": {"molecular_target": "Gal(a1-3)Gal", "summary_of_the_method": "as §1"}, "[4]": {"molecular_target": "Gal(a1-3)Gal(b1-3)GlcNAc", "summary_of_the_method": "as §1"}, "[5]": {"molecular_target": "Gal(a1-3)Gal(b1-3)GlcNAc(b1-2)Man", "summary_of_the_method": "as §1"}, "[6]": {"molecular_target": "Gal(a1-3)Gal(b1-3)GlcNAc(b1-2)Man(a1-3)[Gal(a1-3)Gal(b1-3)GlcNAc(b1-2)Man(a1-6)]Man(b1-4)GlcNAc(b1-4)GlcNAc", "summary_of_the_method": "as §1"}, "[7]": {"molecular_target": "Gal(a1-3)Gal(b1-3)GlcNAc(b1-3)GalNAc", "summary_of_the_method": "as §1"}, "[8]": {"molecular_target": "Gal(a1-3)Gal(b1-3)GlcNAc(b1-6)GalNAc", "summary_of_the_method": "as §1"}, "[9]": {"molecular_target": "Gal(a1-3)Gal(b1-3)[Fuc(a1-4)]GlcNAc(b1-2)Man(a1-3)[Gal(a1-3)Gal(b1-3)[Fuc(a1-4)]GlcNAc(b1-2)Man(a1-6)]Man(b1-4)GlcNAc(b1-4)GlcNAc", "summary_of_the_method": "as §1"}, "[10]": {"molecular_target": "Gal(a1-3)Gal(b1-4)Glc", "summary_of_the_method": "as §1"}, "[11]": {"molecular_target": "Gal(a1-3)Gal(b1-4)GlcNAc", "summary_of_the_method": "as §1"}, "[12]": {"molecular_target": "Gal(a1-3)Gal(b1-4)GlcNAc(b1-2)Man", "summary_of_the_method": "as §1"}, "[13]": {"molecular_target": "Gal(a1-3)Gal(b1-4)GlcNAc(b1-2)Man(a1-3)[Gal(a1-3)Gal(b1-4)GlcNAc(b1-2)Man(a1-6)]Man(b1-4)GlcNAc(b1-4)GlcNAc", "summary_of_the_method": "as §1"}, "[14]": {"molecular_target": "Gal(a1-3)Gal(b1-4)GlcNAc(b1-3)GalNAc", "summary_of_the_method": "as §1"}, "[15]": {"molecular_target": "Gal(a1-3)Gal(b1-4)GlcNAc(b1-6)GalNAc", "summary_of_the_method": "as §1"}, "[16]": {"molecular_target": "Gal(a1-3)Gal(b1-4)[Fuc(a1-3)]GlcNAc", "summary_of_the_method": "as §1"}, "[17]": {"molecular_target": "Gal(a1-3)Gal(b1-4)[Fuc(a1-3)]GlcNAc(b1-2)Man(a1-3)[Gal(a1-3)Gal(b1-4)[Fuc(a1-3)]GlcNAc(b1-2)Man(a1-6)]Man(b1-4)GlcNAc(b1-4)GlcNAc", "summary_of_the_method": "as §1"}, "[18]": {"molecular_target": "Gal(a1-3)GalNAc", "summary_of_the_method": "as §1"}, "[19]": {"molecular_target": "Gal(a1-3)[Gal(a1-4)]Gal(b1-4)GlcNAc", "summary_of_the_method": "as §1"}, "[20]": {"molecular_target": "Gal(a1-4)Gal(b1-3)GlcNAc(b1-2)Man(a1-3)[Gal(a1-4)Gal(b1-3)GlcNAc(b1-2)Man(a1-6)]Man(b1-4)GlcNAc(b1-4)GlcNAc", "summary_of_the_method": "as §1"}, "[21]": {"molecular_target": "Gal(a1-4)Gal(b1-4)Glc", "summary_of_the_method": "as §1"}, "[22]": {"molecular_target": "Gal(a1-4)Gal(b1-4)GlcNAc", "summary_of_the_method": "as §1"}, "[23]": {"molecular_target": "Gal(a1-4)Gal(b1-4)GlcNAc(b1-2)Man(a1-3)[Gal(a1-4)Gal(b1-4)GlcNAc(b1-2)Man(a1-6)]Man(b1-4)GlcNAc(b1-4)GlcNAc", "summary_of_the_method": "as §1"}, "[24]": {"molecular_target": "Gal(a1-4)Gal(b1-4)GlcNAc(b1-3)Gal(b1-4)Glc", "summary_of_the_method": "as §1"}, "[25]": {"molecular_target": "Gal(a1-4)GlcNAc", "summary_of_the_method": "as §1"}, "[26]": {"molecular_target": "Gal(a1-6)Glc", "summary_of_the_method": "as §1"}, "[27]": {"molecular_target": "Gal(b1-2)Gal", "summary_of_the_method": "as §1"}, "[28]": {"molecular_target": "Gal(b1-3)Gal", "summary_of_the_method": "as §1"}, "[29]": {"molecular_target": "Gal(b1-3)Gal(b1-4)GlcNAc", "summary_of_the_method": "as §1"}, "[30]": {"molecular_target": "Gal(b1-3)Gal(b1-4)GlcNAc(b1-2)Man(a1-3)[Gal(b1-3)Gal(b1-4)GlcNAc(b1-2)Man(a1-6)]Man(b1-4)GlcNAc(b1-4)GlcNAc", "summary_of_the_method": "as §1"}, "[31]": {"molecular_target": "Gal(b1-3)GalNAc", "summary_of_the_method": "as §1"}, "[32]": {"molecular_target": "Gal(b1-3)GalNAc(a1-3)[Fuc(a1-2)]Gal(b1-4)Glc", "summary_of_the_method": "as §1"}, "[33]": {"molecular_target": "Gal(b1-3)GalNAc(a1-3)[Fuc(a1-2)]Gal(b1-4)GlcNAc", "summary_of_the_method": "as §1"}, "[34]": {"molecular_target": "Gal(b1-3)GalNAc(b1-3)Gal", "summary_of_the_method": "as §1"}, "[35]": {"molecular_target": "Gal(b1-3)GalNAc(b1-3)Gal(a1-4)Gal(b1-4)Glc", "summary_of_the_method": "as §1"}, "[36]": {"molecular_target": "Gal(b1-3)GalNAc(b1-4)Gal(b1-4)Glc", "summary_of_the_method": "as §1"}, "[37]": {"molecular_target": "Gal(b1-3)GalNAc(b1-4)[Neu5Ac(a2-3)]Gal(b1-4)Glc", "summary_of_the_method": "as §1"}, "[38]": {"molecular_target": "Gal(b1-3)GlcNAc", "summary_of_the_method": "as §1"}, "[39]": {"molecular_target": "Gal(b1-3)GlcNAc(a1-3)Gal(b1-4)GlcNAc", "summary_of_the_method": "as §1"}, "[40]": {"molecular_target": "Gal(b1-3)GlcNAc(a1-6)Gal(b1-4)GlcNAc", "summary_of_the_method": "as §1"}, "[41]": {"molecular_target": "Gal(b1-3)GlcNAc(b1-2)Man", "summary_of_the_method": "as §1"}, "[42]": {"molecular_target": "Gal(b1-3)GlcNAc(b1-2)Man(a1-3)[Gal(b1-3)GlcNAc(b1-2)Man(a1-6)]Man(b1-4)GlcNAc(b1-4)GlcNAc", "summary_of_the_method": "as §1"}, "[43]": {"molecular_target": "Gal(b1-3)GlcNAc(b1-2)Man(a1-3)[Gal(b1-3)GlcNAc(b1-2)Man(a1-6)]Man(b1-4)GlcNAc(b1-4)[Fuc(a1-6)]GlcNAc", "summary_of_the_method": "as §1"}, "[44]": {"molecular_target": "Gal(b1-3)GlcNAc(b1-2)Man(a1-3)[GlcNAc(b1-4)][Gal(b1-3)GlcNAc(b1-2)Man(a1-6)]Man(b1-4)GlcNAc(b1-4)GlcNAc", "summary_of_the_method": "as §1"}, "[45]": {"molecular_target": "Gal(b1-3)GlcNAc(b1-2)[Gal(b1-3)GlcNAc(b1-6)]Man(a1-6)[Gal(b1-3)GlcNAc(b1-2)Man(a1-3)]Man(b1-4)GlcNAc(b1-4)GlcNAc", "summary_of_the_method": "as §1"}}, "note": "The list shows a part of the results.", "data": [{"binder": "BabA (Helicobacter pylori), O52269_HELPY (protein) AEDDGFYMSAGYQIGEAAQMVKNTKGIQELSDNYENLSNLLTRYSTLNTLIKLSADPSAVNAARENLGASAKNLIGDTKNSPAYQAVLLAINAAVGFWNVVGYVTQCGGNANGQKSTSSTTIFNNEPGYRSTSITCSLNGHMPGYYGPMSIENFKKLNEAYQILQTALKNGLPALKENNGTVNVTYSYTCSGEGNDNCSLQTTGVTNQNNGTKTETQTIDGKSVTTTISSKVVDSQ", "values": [{"measurement": "glycan array binding signal (z-score)", "setting": "[1]", "result": 0.195}, {"measurement": "glycan array binding signal (z-score)", "setting": "[2]", "result": 0.151}, {"measurement": "glycan array binding signal (z-score)", "setting": "[3]", "result": 0.62}, {"measurement": "glycan array binding signal (z-score)", "setting": "[4]", "result": 0.003}, {"measurement": "glycan array binding signal (z-score)", "setting": "[5]", "result": -0.582}, {"measurement": "glycan array binding signal (z-score)", "setting": "[6]", "result": 0.717}, {"measurement": "glycan array binding signal (z-score)", "setting": "[7]", "result": -0.391}, {"measurement": "glycan array binding signal (z-score)", "setting": "[8]", "result": -0.646}, {"measurement": "glycan array binding signal (z-score)", "setting": "[9]", "result": 1.82}, {"measurement": "glycan array binding signal (z-score)", "setting": "[10]", "result": -0.338}, {"measurement": "glycan array binding signal (z-score)", "setting": "[11]", "result": -0.497}, {"measurement": "glycan array binding signal (z-score)", "setting": "[12]", "result": 0.081}, {"measurement": "glycan array binding signal (z-score)", "setting": "[13]", "result": -0.16}, {"measurement": "glycan array binding signal (z-score)", "setting": "[14]", "result": -0.591}, {"measurement": "glycan array binding signal (z-score)", "setting": "[15]", "result": -0.564}, {"measurement": "glycan array binding signal (z-score)", "setting": "[16]", "result": -0.847}, {"measurement": "glycan array binding signal (z-score)", "setting": "[17]", "result": 0.242}, {"measurement": "glycan array binding signal (z-score)", "setting": "[18]", "result": -0.334}, {"measurement": "glycan array binding signal (z-score)", "setting": "[19]", "result": -0.843}, {"measurement": "glycan array binding signal (z-score)", "setting": "[20]", "result": -0.164}, {"measurement": "glycan array binding signal (z-score)", "setting": "[21]", "result": -0.26}, {"measurement": "glycan array binding signal (z-score)", "setting": "[22]", "result": 0.146}, {"measurement": "glycan array binding signal (z-score)", "setting": "[23]", "result": -0.028}, {"measurement": "glycan array binding signal (z-score)", "setting": "[24]", "result": 0.167}, {"measurement": "glycan array binding signal (z-score)", "setting": "[25]", "result": -0.104}, {"measurement": "glycan array binding signal (z-score)", "setting": "[26]", "result": -0.485}, {"measurement": "glycan array binding signal (z-score)", "setting": "[27]", "result": 0.59}, {"measurement": "glycan array binding signal (z-score)", "setting": "[28]", "result": 0.209}, {"measurement": "glycan array binding signal (z-score)", "setting": "[29]", "result": -0.322}, {"measurement": "glycan array binding signal (z-score)", "setting": "[30]", "result": 0.28}, {"measurement": "glycan array binding signal (z-score)", "setting": "[31]", "result": -0.024}, {"measurement": "glycan array binding signal (z-score)", "setting": "[32]", "result": -0.915}, {"measurement": "glycan array binding signal (z-score)", "setting": "[33]", "result": -0.885}, {"measurement": "glycan array binding signal (z-score)", "setting": "[34]", "result": 0.308}, {"measurement": "glycan array binding signal (z-score)", "setting": "[35]", "result": 0.544}, {"measurement": "glycan array binding signal (z-score)", "setting": "[36]", "result": 0.303}, {"measurement": "glycan array binding signal (z-score)", "setting": "[37]", "result": 0.035}, {"measurement": "glycan array binding signal (z-score)", "setting": "[38]", "result": 0.011}, {"measurement": "glycan array binding signal (z-score)", "setting": "[39]", "result": -0.537}, {"measurement": "glycan array binding signal (z-score)", "setting": "[40]", "result": 0.39}, {"measurement": "glycan array binding signal (z-score)", "setting": "[41]", "result": -0.119}, {"measurement": "glycan array binding signal (z-score)", "setting": "[42]", "result": -0.37}, {"measurement": "glycan array binding signal (z-score)", "setting": "[43]", "result": -0.423}, {"measurement": "glycan array binding signal (z-score)", "setting": "[44]", "result": 0.444}, {"measurement": "glycan array binding signal (z-score)", "setting": "[45]", "result": 0.181}]}]}
